A short description of the test: qHTS Assay to Find Inhibitors of Chronic Active B-Cell Receptor Signaling. Conditions: ABC-DLBCL IkBa-CBG/CBR reporter, luminescence ratio (green luciferase fused to IkBa over red control in TMD8 lymphoma cells), 4 h. The gist of the method:
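Compounds up to 46 uM were incubated four hours with TMD8 cells whose green CBG68 luciferase is fused to IkappaBalpha; red CBR luminescence normalised the signal, and concentration-effect curves were fitted to fusion, red and ratio data.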
On the technique in general: Quantitative high-throughput screening tests each substance at several concentrations.

[1] abbreviates: measured here: CBR red luminescence, cell number.
Where [2] appears, read: measured here: IkBa-CBG green luminescence.

The other results are listed elsewhere or left out. Further columns of the screen follow, without active or inactive calls. Compounds called inactive in the main read-out are mostly missing here. Words in brackets tell the shape of the fitted curve; partial curves, single points and poor fits give uncertain potencies.

Data on 60 compounds can be found in PubChem BioAssay AID493014 (National Center for Advancing Translational Sciences (NCATS), 2011).

Usually AC50 stands for the midpoint of the concentration-response curve, whichever way the signal moves.

In the case of `O=S(=O)(CCN1C=CC(C(F)(F)F)=NCC1)c1ccc(F)cc1`, under setting [1], the AC50 was 35.5 µM [falling, single point]. Same read-out and setting: the same measure for `CCn1nc(NC(=O)c2ccco2)c2cc3ccccc3nc21`: 5.62 µM [falling, full curve]. On to `CC(C)CNc1c(N)n(CC(C)C)c(=O)[nH]c1=O`, for which the AC50 under setting [1] was 0.1 µM [rising, full curve, poor fit]. Take `CN(CC(=O)Nc1nc2ccc(F)cc2s1)S(=O)(=O)c1ccc(Cl)cc1`: the AC50 under setting [1] was 29.1 µM [falling, single point] and the AC50 under setting [2] was 25.9 µM [rising, partial curve, poor fit].

On to `CC1(c2ccc(Cl)cc2Cl)NC(=O)N(CC(=O)Nc2ccc3[nH]c(=O)[nH]c3c2)C1=O` (centres undefined), for which, under setting [1], the AC50 was 20.6 µM [rising, partial curve, poor fit]. Still for that read-out and setting: the same measure for `CC1CCN(CC2C(=O)O[C@@H]3C[C@@]4(C)CCC[C@H](C)C4=C[C@H]23)CC(C)(C)C1` (some centres undefined): 10 µM [falling, partial curve]. As to `S=c1nc2ccccc2c2nc(-c3ccccc3)[nH]n12`, the AC50 by setting is: under setting [1], 11.2 µM [falling, partial curve, poor fit]; under setting [2], 1 µM [falling, full curve]. As to `Cc1oc2c(CN3CCOCC3)c(O)ccc2c(=O)c1-c1ccccc1`, the AC50 under setting [1] is 2.82 µM [falling, partial curve]. On the same count and under the same terms, the same measure for `COC(=O)CNC(c1ccccc1)c1cc(Br)ccc1NC(=O)CCN1CCOCC1` (centres undefined): 23.1 µM [falling, single point]; for `C/C(Cc1ccccc1)=N\NC(=O)c1cccnc1`: 25.9 µM [falling, single point]; for `FC(F)(F)c1cc(C(F)(F)F)c2ccc(Oc3ccccc3)nc2n1`: 3.98 µM [rising, full curve, poor fit]. Regarding `CC[C@]12c3[nH]c4cc(CCC(=O)N(C)C)ccc4c3CCN1C(=O)[C@@H](CC(=O)NC(C)(C)C)C[C@@H]2C(=O)N1CCN(C(=O)c2ccco2)CC1`, the concentration at half-maximal activity (AC50) was 20.6 µM [rising, single point] under setting [1] and 20.6 µM [falling, partial curve] under setting [2]. Regarding `O=C1C(Cl)=C(NCCN2CCCCC2)C(=O)c2ccccc21`, the AC50 was 6.31 µM [falling, partial curve] under setting [1] and 8.91 µM [rising, partial curve, poor fit] under setting [2].

For `O=C(O)c1cccc(NC(=S)NC(=O)C(c2ccccc2)c2ccccc2)c1`, the concentration at half-maximal activity (AC50) runs as follows: under setting [1], 5.01 µM [rising, full curve, poor fit]; under setting [2], 11.2 µM [falling, partial curve, poor fit]. Turning to `CCOC(=O)c1sc(NC(=O)CS(=O)(=O)c2ccc(C)cc2)nc1C`, under setting [1], the AC50 is 17.8 µM [falling, single point]. On the same count and under the same terms, the value for `COc1ccccc1NC(=O)Nc1nc(CC(=O)N2CCN(c3ccccc3)CC2)cs1` was 13 µM [falling, single point]; that for `N#C/C(=C\N1CCN(Cc2ccc3c(c2)OCO3)CC1)c1nc2ccccc2s1` was 10 µM [falling, partial curve, poor fit]; that for `O=C1/C(=C/c2cccnc2)SC(=S)N1C1CCS(=O)(=O)C1` (centres undefined) was 6.51 µM [falling, full curve, poor fit]. Still for that read-out and setting: the value for `CCOc1ccc(Br)cc1S(=O)(=O)N1CCSC1` was 31.6 µM [rising, single point]; that for `Cc1[nH][nH]c(=O)c1N=Nc1ccccc1C#N` was 2.24 µM [falling, full curve]. `O=C(CN1CCCCCC1)Nc1ccccc1Cl`: under setting [1], the half-maximal activity concentration (AC50) was 14.1 µM [falling, partial curve]. On the same count and under the same terms, the same measure for `CCN(CC)CCNc1nc(SC)nc2sc3c(c12)CCN(C)C3`: 10 µM [falling, partial curve]. As to `O=C(N/N=C/c1ccccn1)c1cc(-c2ccccc2)nc2ccccc12`, the half-maximal activity concentration (AC50) runs as follows: under setting [1], 12.6 µM [rising, partial curve]; under setting [2], 11.2 µM [falling, partial curve, poor fit]. As for `Fc1ccc(Nc2ncnc3sccc23)cc1`, the concentration at half-maximal activity (AC50) under setting [1] is 2.82 µM [falling, full curve, poor fit]. Same read-out and setting: the same measure for `CCSc1nnc(-c2ccc(Cl)cc2Cl)o1`: 10 µM [rising, partial curve]. The same measure, in the same setting: the value for `C=CCc1cccc(CNc2c(C)n(C)n(-c3ccccc3)c2=O)c1O` was 23.1 µM [falling, partial curve, poor fit]; that for `CCn1c(=O)cc(SCC(=O)N(C)Cc2ccccc2)c2ccccc21` was 6.51 µM [rising, single point]; that for `Cc1ccc(S(=O)(=O)N(C)c2ccc(OCC(=O)Nc3nc(-c4ccccc4)cs3)cc2)cc1` was 4.61 µM [rising, full curve, poor fit]. Take `COc1ccc(CCNC(=O)CCc2cn(C)c3ccccc23)c(OC)c1`: the AC50 under setting [1] was 12.6 µM [rising, single point]. Same read-out and setting: the value for `CC(NC(=O)Nc1ccc(Br)cc1)C(C)(C)C` (centres undefined) was 17.8 µM [rising, partial curve, poor fit]; that for `O=S(=O)(Nc1ncccn1)c1ccc(NS(=O)(=O)c2cccc(Cl)c2Cl)cc1` was 1.12 µM [rising, full curve, poor fit]. Turning to `Cc1cc(-c2cccc([N+](=O)[O-])c2)nc2ccccc12`, the AC50 was 20.6 µM [rising, partial curve] under setting [1] and 18.4 µM [falling, single point] under setting [2].

On to `CCOC(=O)Cc1csc(NC(=O)COc2ccccc2OC)n1`, for which the concentration at half-maximal activity (AC50) under setting [1] was 8.91 µM [falling, partial curve]. For the compound `COC(=O)c1ccc(CNC(=O)c2ccc3c(c2)NC(=O)CS3)cc1`, the AC50 under setting [1] was 6.51 µM [falling, partial curve, poor fit]. On the same count and under the same terms, the value for `COC(=O)c1ccccc1NC(=O)N1CCN(c2ccccc2)CC1` was 2.82 µM [rising, full curve, poor fit]; that for `C/C(=N/Nc1nc(C)cc(-c2ccccc2)n1)c1ccco1` was 10.3 µM [falling, single point]. Consider `CCOC(=O)N1CCN(C(=O)c2ccccc2NC(C)=O)CC1`, for which the AC50 under setting [2] is 15.8 µM [falling, single point].

Take `COc1ccc(-c2nc3c(c(=O)[nH]c(=O)n3Cc3ccccc3)n2C)cc1`: the AC50 under setting [1] is 0.184 µM [falling, full curve, poor fit]. `CC(NCc1ccco1)C(=O)N1CCc2ccccc2C1` (centres undefined): the AC50 is 4.61 µM [rising, single point] under setting [1] and 4.61 µM [falling, partial curve, poor fit] under setting [2]. As for `O=C(COc1ccccc1[N+](=O)[O-])NCC1(N2CCOCC2)CCCCC1`, under setting [1], the AC50 was 0.731 µM [falling, partial curve, poor fit].

Take `Cc1[nH]c2ccccc2c1C(=O)COC(=O)c1ccc[n+]([O-])c1`: under setting [1], the concentration at half-maximal activity (AC50) was 35.5 µM [falling, single point]. Regarding `CCc1ccc(NC(=O)C(=O)NCC2CCCN2S(=O)(=O)c2cccs2)cc1` (centres undefined), the AC50 under setting [2] was 20.6 µM [falling, partial curve, poor fit]. On to `Cc1ccc(Sc2nnc(Cc3ccccc3)c3ccccc23)cc1`, for which the concentration at half-maximal activity (AC50) under setting [1] is 2.59 µM [falling, partial curve, poor fit].

For `Cc1cc(O)c(NC(=O)c2cccc([N+](=O)[O-])c2)cc1C`, the AC50 under setting [1] is 3.98 µM [falling, single point].

With `CCOC(=O)c1c(-c2ccc(C)cc2C)csc1NC(=O)CSc1nnnn1C`, the AC50 under setting [1] is 35.5 µM [falling, single point]. Same read-out and setting: the same measure for `CCC(=O)Nc1sc2c(c1C#N)CCCCC2`: 13 µM [rising, single point]; for `CCOC(=O)C1CCN(C(=O)c2cc3c(-c4ccc(OC)c(OC)c4)nn(C)c3s2)CC1`: 5.62 µM [rising, single point]; for `O=C1Nc2ccc(F)cc2C12Nc1ccccc1-c1nnc(SCc3ccccc3F)nc1O2` (centres undefined): 35.5 µM [falling, single point]. Still for that read-out and setting: the same measure for `Cc1ccc(OCC(=O)Nc2sc3c(c2C#N)CCC3)cc1`: 11.2 µM [rising, partial curve, poor fit]; for `Cc1ccc2cc(C3CC(c4cccs4)=NN3S(C)(=O)=O)c(Cl)nc2c1` (centres undefined): 35.5 µM [falling, single point]. Turning to `N=C1c2ccccc2CN1NC(=O)c1cccc(S(=O)(=O)N2CCCCC2)c1`, the AC50 under setting [1] was 32.6 µM [falling, single point]. Still for that read-out and setting: the same measure for `CC(C)CCNC1=CC(=O)CC(c2ccccc2)C1` (centres undefined): 0.326 µM [rising, full curve, poor fit]; for `Cc1ccc(OCC(=O)Nc2cnn(CCCC(=O)O)c2)c([N+](=O)[O-])c1`: 35.5 µM [falling, single point]. Regarding `O=c1n(Cc2ccccc2)c2cc(Cl)cnc2n1Cc1ccccc1`, the concentration at half-maximal activity (AC50) under setting [1] is 11.6 µM [falling, partial curve] and the half-maximal activity concentration (AC50) under setting [2] is 16.4 µM [rising, partial curve, poor fit]. For `COc1cc(OC)cc(C(=O)N[C@H](C(=O)Nc2nc3ccc(S(C)(=O)=O)cc3s2)C(C)C)c1`, under setting [1], the AC50 is 35.5 µM [falling, single point]. Same read-out and setting: the value for `COc1cc(/C=C2/NC(=O)NC2=O)ccc1OCC(=O)Nc1ccc(F)cc1` was 5.01 µM [rising, partial curve, poor fit]; that for `O=C(C1CC1)N1N=C(c2ccc(Br)cc2)CC1(O)C(F)(F)F` (centres undefined) was 0.316 µM [rising, partial curve, poor fit]; that for `CCOc1ccc(-c2cc(N)n(S(=O)(=O)c3ccc(OC)c(OC)c3)n2)cc1` was 29.1 µM [falling, single point]. `O=C1c2[nH]nc(-c3ccccc3O)c2C(c2cccc(Cl)c2)N1Cc1ccco1` (centres undefined): under setting [1], the half-maximal activity concentration (AC50) was 5.17 µM [falling, partial curve, poor fit]. Same read-out and setting: the same measure for `CCCCCOC(=O)c1ccc(N2C(=O)C3C4C=CC(C4)C3C2=O)cc1` (centres undefined): 6.51 µM [rising, partial curve, poor fit].
